# Measurements from US20050042209A1, “MUC1 extracellular domain and cancer treatment compositions and methods derived therefrom” (priority 2000, published 2005).
# Read-outs that look alike come from different tables or passages of the source. At least one structure is not confirmed: it was looked up by name or label, or the drawing left a doubt. Some results were stated once for a whole list of compounds, not compound by compound.
# Columns and labels:
# [1] = tested on: MUC1; conditions: HeLa cells
# [2] = tested on: phospho-Akt and phospho-Bad; assay: PI3K/Akt signaling immunoblot in 3Y1/MUC1 cells; type: cell-based, Rat; conditions: 25 mM LY294002
# [3] = tested on: Bcl-xL; assay: Bcl-xL levels (immunoblot) in 3Y1/MUC1 cells; type: cell-based, Rat; conditions: 3Y1/MUC1-A cells
# [4] = tested on: MUC1; assay: MUC1 expression in 3Y1/MUC1 cells; type: cell-based, Rat
# [5] = tested on: Bcl-xL; conditions: cited from earlier work
# [6] = tested on: MUC1; conditions: gastric carcinoma cells (Kobayashi et al., 2003); cited from earlier work
smiles,measurement,setting,value
"CC1(C)CC[C@]2(C(=O)n3ccnc3)CC[C@]3(C)[C@H](C(=O)C=C4[C@@]5(C)C=C(C#N)C(=O)C(C)(C)[C@@H]5CC[C@]43C)[C@@H]2C1 [CDDO-Im, imadzole CDDO]",concentrations that decrease MUC1 expression,[1],below 1 μM
"COC(=O)[C@]12CCC(C)(C)C[C@H]1[C@H]1C(=O)C=C3[C@@]4(C)C=C(C#N)C(=O)C(C)(C)[C@@H]4CC[C@@]3(C)[C@]1(C)CC2 [CDDO-Me, CDDO methyl ester]",concentrations that decrease MUC1 expression,[1],below 1 μM
CC1(C)CC[C@]2(C(=O)O)CC[C@]3(C)[C@H](C(=O)C=C4[C@@]5(C)C=C(C#N)C(=O)C(C)(C)[C@@H]5CC[C@]43C)[C@@H]2C1 [CDDO],concentrations that decrease MUC1 expression,[1],below 1 μM
O=c1cc(N2CCOCC2)oc2c(-c3ccccc3)cccc12 [LY294002],phospho-Akt and phospho-Bad levels,[2],down-regulation
same,Bcl-xL levels,[3],little if any effect
same,MUC1 expression,[4],no apparent effect
same,Bcl-xL levels,"[5]; Baf-3 hematopoietic cells (Leverrier et al., 1999)",down-regulated
same,Bcl-xL levels down-regulated,"[5]; PC-3 prostate cancer cells (Yang & Lattime et al., 2003)",not
same,MUC1,[6],down-regulates
